In article PMC5741622, “Structure of a Wbl protein and implications for NO sensing by M. tuberculosis” (Nature Communications, 2017):
These are yes or no findings as the source states them, for the method shown. Where a sequence is shown, tags or fusion partners need not be part of it.

Biological target: M. tuberculosis WhiB1 overproduced in Mycobacterium smegmatis with a His-tag and a TEV protease clea (Mycobacterium tuberculosis) (UniProt P9WF43)
Assay: native MS; both purified

B1: M. tuberculosis WhiB1 overproduced in Mycobacterium smegmatis with a His-tag and a TEV protease clea (protein, UniProt P9WF43 1-84)
chain: MDWRHKAVCRDEDPELFFPVGNSGPALAQIADAKLVCNRCPVTTECLSWALNTGQDSGVWGGMSEDERRALKRRNARTKARTGV
modifications: [4Fe-4S] cluster coordinated by cysteine residues 9, 37, 40 and 46
B1 was tested, and the binding was “no binding (tested: 20 μM)”.
